The data set can be described thus: general procedure: solution-phase peptide synthesis; DEPC/DIEA. The note with it: conjugation step.

The record followed here is patent publication US8663642B2 (priority 2003, dated 2014).

Regarding MC-Val-Cit-PAB-MMAF-O-t-butyl ester, the conjugation yield was 71%.
